Test results from PMC8100072.
No constants are given. Whether binding was seen depends on the method and setting. Binding seen in cells or lysates may run through a third protein. Some binding calls cover weakened binding; strength is not graded here.

Chains of the proteins cited; added tags and fusions are not shown.
UniProt O81445: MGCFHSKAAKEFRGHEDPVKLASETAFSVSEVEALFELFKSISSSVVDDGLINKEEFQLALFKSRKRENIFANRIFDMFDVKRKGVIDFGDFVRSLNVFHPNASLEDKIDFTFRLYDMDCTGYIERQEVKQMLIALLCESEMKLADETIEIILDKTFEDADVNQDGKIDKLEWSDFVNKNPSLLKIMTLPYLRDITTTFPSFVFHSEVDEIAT

Biological target: Calcineurin B-like protein 1 (CBL1), BiFC positive control (UniProt O81445)
Assay: split reporter; BiFC with YFP^N-ter(1-173aa) and YFP^C-ter(156-239aa) fusions coexpressed in onion epidermal cells by Agrobacterium-mediated transformation; confocal microscopy 48 h after transformation; unstressed

binding: binds
B1: CIPK24, BiFC positive control (protein, UniProt Q9LDI3 1-446)
chain: MTKKMRRVGKYEVGRTIGEGTFAKVKFARNTDTGDNVAIKIMAKSTILKNRMVDQIKREISIMKIVRHPNIVRLYEVLASPSKIYIVLEFVTGGELFDRIVHKGRLEESESRKYFQQLVDAVAHCHCKGVYHRDLKPENLLLDTNGNLKVSDFGLSALPQEGVELLRTTCGTPNYVAPEVLSGQGYDGSAADIWSCGVILFVILAGYLPFSETDLPGLYRKINAAEFSCPPWFSAEVKFLIHRILDPNPKTRIQIQGIKKDPWFRLNYVPIRAREEEEVNLDDIRAVFDGIEGSYVAENVERNDEGPLMMNAFEMITLSQGLNLSALFDRRQDFVKRQTRFVSRREPSEIIANIEAVANSMGFKSHTRNFKTRLEGLSSIKAGQLAVVIEIYEVAPSLFMVDVRKAAGETLEYHKFYKKLCSKLENIIWRATEGIPKSEILRTITF
